# Reference: article PMC9958131 (Nature Communications, 2023)
# How the values were obtained:
# cathepsins B, S, and H = assay: Proteolytic mapping (ProtMap) of native and citrullinated autoantigens by cathepsins B, S, and H with LFQ-MS; format: biochemical, human; conditions: for # changed residues: cathepsins BSH, pH 5.0, 4 h, 37 °C; for # changed peptides Cr (created) / # changed peptides De (destroyed): q <= 0.05 and >= twofold
# Description: Prior to proteolytic mapping, citrullinated antigens were generated by incubating recombinant human antigens—hnRNP A2/B1 (RA33; custom-made as previously described by in ref. [24]), fibrinogen (Cayman Chemical), and vimentin (PeproTech)—with Sf9-purified peptidylarginine deiminase 2 or 4 (PAD2 or PAD4; Inova) at a 17:1 mass ratio in citrullination buffer (100 mM Tris, 1 mM DTT, 5 mM CaCl2, pH 7.5) for 4 h at 37 °C. Native antigens were diluted in the same buffer without PAD enzymes and without incubation at 37 °C to prevent degradation. Citrullination was confirmed by anti-peptidylcitrulline (clone F95, EMD Millipore) immunoblotting. Native and citrullinated antigen pools were split into four 15 µg replicates per condition before digestion (except hnRNP A2/B1, which was digested in double-volume replicates of three and later split into two each, total n = 6, prior to MS) by cathepsins B, S, and H (Millipore Sigma). Digestions were incubated in digestion buffer (citrate phosphate buffer, 4 mM DTT, 1 mM EDTA, pH 5.0) for 4 h at 37 °C. Fibrinogen and vimentin were digested at a 60:1 antigen:cathepsin mass ratio per cathepsin, and hnRNP A2/B1 was digested at a 150:1 antigen:cathepsin mass ratio per cathepsin to achieve full digestion of the protein. Digestion was confirmed by Coomassie Blue staining, and the remaining samples were centrifuged through a 10-kDa-spin filter (Microcon, Millipore) to remove undigested protein fragments. The resulting peptide repertoires were then analyzed by LFQ–MS.
# Prior to MS, the samples were reduced and alkylated by incubating in 10 mM Tris (2-Carboxyethyl) phosphine hydrochloride (TCEP, v/v) and 50 mM chloroacetamide (CAA, v/v) for 1 h at room temperature. The samples were then desalted using C18 StageTips (3 M Empore) after acidifying with 1% trifluoroacetic acid (TFA). The peptide solution was vacuum-dried and stored at ‒80 °C. The peptide samples were analyzed on an Orbitrap Fusion Lumos Tribrid mass spectrometer interfaced with an Ultimate 3000 RS Autosampler nanoflow liquid chromatography system (Thermo Scientific). The dried peptides were reconstituted in 15 µL of 0.5% formic acid (FA) and then loaded onto a trap column (Acclaim™ PepMap™ 100 LC C18, 5 μm, 100 μm × 2 cm, Thermo Scientific) at a flow rate of 8 μL/min. Peptides were separated on an analytical column (Easy-Spray™ PepMap™ RSLC C18, 2 μm, 75 μm × 50 cm, Thermo Scientific) at a flow rate of 0.3 μL/min using a linear gradient with mobile phases consisting of 0.1% FA in water and in 95% acetonitrile (ACN) for 120 min. The mass spectrometer was operated in data-dependent acquisition (DDA) mode. The MS1 (precursor ions) scan range for a full survey scan was acquired from 300 to 1800 m/z in the top speed setting with a resolution of 120,000 at an m/z of 200. The AGC target for MS1 was set as 1 × 10^6, and the maximum injection time was 100 milliseconds. The most intense ions with charge states of 2–5 were isolated in a 3-s cycle, fragmented using higher-energy collisional dissociation (HCD) fragmentation with 32% normalized collision energy, and detected at a mass resolution of 50,000 at an m/z of 200. The AGC target for MS/MS (fragments) was set as 5 × 10^4, and the ion filling time was 100 milliseconds. The precursor isolation window was set to 1.6 m/z with a 0.4 m/z offset. The dynamic exclusion was set to 30 s, and singly charged ions were rejected. Internal calibration was carried out using the lock mass option (m/z 445.1200025) from ambient air[59]–[61].
# Proteome Discoverer (version 2.4.1.15, Thermo Scientific) was used for the identification and quantitation of proteins. During MS/MS preprocessing, the top 10 peaks in each window of 100 m/z were selected for database search. […]
# recombinant human PAD2 = assay: Citrullination site mapping by mass spectrometry after PAD2 citrullination; format: biochemical; conditions: PAD2 condition
# recombinant human PAD4 = assay: Citrullination site mapping by mass spectrometry after PAD4 citrullination; format: biochemical; conditions: PAD4 condition
# [1] = share of sequence citrullinated
substance,measurement,setting,value
"Vimentin: recombinant human vimentin (PeproTech), RA autoantigen; native or citrullinated by PAD2 or PAD4",Change Score - PAD2,"cathepsins B, S, and H; Fig. 3e, native vs PAD2-citrullinated protein",53.9634
same,Change Score - PAD4,"cathepsins B, S, and H; Fig. 3e, native vs PAD4-citrullinated protein",21.7391
same,changed peptides (%) Cr (created),"cathepsins B, S, and H; PAD2-citrullinated vs native",42.38%
same,changed peptides (%) De (destroyed),"cathepsins B, S, and H; PAD2-citrullinated vs native",11.59%
same,changed residues (%),"cathepsins B, S, and H; PAD2-citrullinated vs native",36.48%
same,# changed residues,"cathepsins B, S, and H; PAD2-citrullinated vs native",170.00
same,# changed peptides Cr (created),"cathepsins B, S, and H; PAD2-citrullinated vs native",139
same,# changed peptides De (destroyed),"cathepsins B, S, and H; PAD2-citrullinated vs native",38
same,changed peptides (%) Cr (created),"cathepsins B, S, and H; PAD4-citrullinated vs native",17.08%
same,changed peptides (%) De (destroyed),"cathepsins B, S, and H; PAD4-citrullinated vs native",4.66%
same,changed residues (%),"cathepsins B, S, and H; PAD4-citrullinated vs native",18.67%
same,# changed residues,"cathepsins B, S, and H; PAD4-citrullinated vs native",87.00
same,# changed peptides Cr (created),"cathepsins B, S, and H; PAD4-citrullinated vs native",55
same,# changed peptides De (destroyed),"cathepsins B, S, and H; PAD4-citrullinated vs native",15
same,PAD2 change score (antigen processing change score),"cathepsins B, S, and H; percentage of all ProtMap peptides significantly changed between native and PAD2-citrullinated samples",53.96 and 53.9634
same,PAD4 change score (antigen processing change score),"cathepsins B, S, and H; percentage of all ProtMap peptides significantly changed between native and PAD4-citrullinated samples",21.74 and 21.7391
same,# citrulline residues,recombinant human PAD2,26
same,citrullination (%),recombinant human PAD2; [1],5.58%
same,# citrulline residues,recombinant human PAD4,30
same,citrullination (%),recombinant human PAD4; [1],6.44%

# Values joined by “and” are separate entries in the source; they are usually repeats but may differ in a detail not shown here. Identical values can stand only once.
